Mtb cholesterol medium: 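Whole-cell growth test on Mycobacterium tuberculosis, read after 4 days in a medium based on cholesterol and the lipid DPPC; the read-out is not stated. Compounds at 50 µM. The record gives no direction; compounds that gave an IC50 in retests scored well above the rest, so higher reads as more growth inhibition. Size under these conditions: about 69,000 compounds, about 370 of them at 50% or above in at least one test.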
Mtb glucose medium: 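Whole-cell growth test on Mycobacterium tuberculosis, read after 3 days in glucose-containing 7H9 medium; the read-out is not stated. Compounds at 50 µM. The record gives no direction; compounds that gave an IC50 in retests scored well above the rest, so higher reads as more growth inhibition. Of about 69,000 compounds tested this way, about 760 (1.1%) reached 50% or more in at least one test.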

The filed quantity is “Percent Effect” (%).
The controls that fix the scale are not given in the record; negative values are as filed.
Compounds were drawn at random from those tested, without regard to their results.
Two or more numbers in one place are separate tests of the same structure; such repeats can differ widely.

SMILES,Mtb cholesterol medium,Mtb glucose medium
COCCN1CCc2onc(C(c3ccccc3)c3ccccc3)c2C1,-12.28%,13.65%
Cc1csc(CN(C)C(=O)Nc2cnn(CC3CCCO3)c2)n1 (centres undefined),-23.34%,-8.321% & -0.8118%
CCNC(=O)c1cnc(Cc2ccc(F)cc2)s1,24.55%,6.379%
CC(NCc1ccccc1Cl)c1ccc2[nH]c(=O)[nH]c2c1 (centres undefined),-14.72%,-8.155% & 1.685%
CN(C)Cc1nnc(C2CCCN(Cc3ccc(Cl)s3)C2)n1C (centres undefined),3.549% & -2.593%,22.03%
CCn1cnnc1CNC(=O)NCC(C(C)C)N1CCOCC1 (centres undefined),1.316%,-1.812% & 1.665%
CC(=O)Nc1ccc(C(=O)N(C)C(C)Cc2cc(C)ccn2)cn1 (centres undefined),-8.691%,-9.669% & 1.059%
CN(C)C(=O)Cc1ccc(NC(=O)NC2CCCCC2)cc1,14.51%,16.46%
Cc1ccc2nc(C)c(C)c(C(=O)N[C@H]3COC[C@@H]3N3CCCC3)c2c1,-1.417%,8.282%
O=C(O)C(F)(F)F.O=C(O)C(F)(F)F.[H][C@@]12COC[C@]1(CNC(=O)c1ccccc1)CN(Cc1cccc(C)n1)C2,2.162%,-3.4%
Cc1ccc(OCC2CCCN(C(=O)Cn3ccccc3=O)C2)cc1 (centres undefined),-7.472%,31.18%
CC(C)[C@H]1CN(Cc2c[nH]nn2)C[C@@H]1NC(=O)C1CCOCC1,-11.63%,-18.58%
O=c1[nH]c2c(c(=O)n1C1CCCCC1)CCC2Nc1ccccn1 (centres undefined),12.54%,33.15%
CCN(Cc1ccc2c(c1)OCO2)S(=O)(=O)N(C)C,-0.3216%,21.76%
CN(C)C1CCCN(C(=O)NCCC(C)(C)C)C1 (centres undefined),-25.13%,-35.59%
Cc1nccn1C1CCCN(C(=O)c2cnc[nH]2)C1 (centres undefined),-4.377%,-1.327%
CCn1ncc(Cl)c1CN(C)C(=O)CCn1ncc(Br)c1C,10.89%,21.01% & 8.521%
O=C(NCC1CC1)c1nc2c(o1)CN(CC1CC1)C2.O=C(O)C(F)(F)F,2.505%,6.703% & -0.5%
Cc1cnc(N2CCC3(CCN(CC4CCCC4)C3=O)CC2)nc1.O=C(O)C(F)(F)F,6.907% & 14.63%,26.1%
Cc1cc(N2CC(c3n[nH]c4nccnc34)C2)ncn1,-12.31%,-2.936%
CCN(Cc1ccoc1)C(=O)NC1CCN(C(=O)OC(C)(C)C)C1 (centres undefined),-7.954%,-10.78% & -0.7491%
[H][C@]12CCN(C(=O)c3cc(C)on3)CC[C@@]1([H])S(=O)(=O)N(C)C2,4.247%,-17.44%
O=C(O)C(F)(F)F.O=C(O)C(F)(F)F.O=C(O)C(F)(F)F.c1ccc(Cn2cc3c(n2)C(CNCc2ccco2)OCC3)nc1 (centres undefined),-2.208% & -12.24%,19.96%
COCCS(=O)(=O)Cc1csc(NC(C)=O)n1,-12.96%,-13.08%
O=C(NCC1(c2cccc(F)c2)CC1)N1CCC2(CCOC2)C1 (centres undefined),-12.61%,6.727% & -11.85%
CC(=O)N1CCC(Nc2ccc(Br)cc2C#N)C1 (centres undefined),10.42% & -2.469%,2.55% & 2.654%
CCc1ncnc2c1CCN(C(=O)c1cccn1C)CC2,-26.18% & -11.56%,-39.21%
Cn1ccnc1-c1nc(NC2CCCC2)ncc1-c1cccc(F)c1,1.169%,34.89%
Cc1ccc(CN2CCN(c3ccc(F)cn3)CC2=O)cc1C,10.55%,4.903%
CCc1ccc(OCC(O)CN2CCN(S(C)(=O)=O)CC2)cc1 (centres undefined),-13.34%,-17.69%
Cc1c(NC(=O)NC2CN3CCC2CC3)cccc1C(=O)N1CCCC1 (centres undefined),-72.09%,-56.77% & -3.738%
O=c1c(NCCNCCO)c(N2CCN(c3ccccc3)CC2)c1=O,-6.304%,0.4486%
Cc1nc(CCCC(=O)Nc2cccc(N3CCNC3=O)c2)cs1,-15.47%,-7.362% & 5.853%
CC(C)CNC(=O)c1nc(COc2ccc3c(c2)OCO3)no1,12.46%,3.843%
Cc1cccc2cc(C(=O)N3CCC(F)(F)CC3)n(C)c12,-56.74%,-43.74%
CCN(Cc1noc(C2CCC2)n1)C(=O)CCc1cc2n(n1)CCNC2,4.987%,14.76%
CN(C)C(=O)c1nn(C)c2c1CN(Cc1cccs1)C2.O=C(O)C(F)(F)F.O=C(O)C(F)(F)F,17.02%,-15.62%
O=C(O)C(F)(F)F.[H][C@@]12CCN(S(C)(=O)=O)C[C@]1(C(=O)NCCc1ccccn1)CCO2,-6.923%,-8.987%
Cc1c(C(=O)N2CCC3(CCC(=O)N(CCN(C)C)C3)CC2)ccn1C,-6.816% & -2.166%,-32.49%
Cc1ccc(CN2CCCC3(CCN(S(=O)(=O)N(C)C)C3)C2)o1 (centres undefined),-11.32%,24.7%
[H][C@@]12CCN(c3cccc(F)c3)C[C@@]1([H])O[C@H](C(=O)N1CCN(C)CC1)C2,4.509%,10.71%
CN(C1CCCCC1)S(=O)(=O)NC1CCCN(c2ncccn2)C1 (centres undefined),-13.84%,7.584% & 11.86%
CCOC(=O)c1coc(N2CCC(N3CCC(O)CC3)CC2)n1,-13.97%,-22.15%

Some entries from above, unchanged:

| SMILES | Mtb cholesterol medium | Mtb glucose medium |
|---|---|---|
| `O=c1c(NCCNCCO)c(N2CCN(c3ccccc3)CC2)c1=O` | -6.304% | 0.4486% |
| `CCN(Cc1ccoc1)C(=O)NC1CCN(C(=O)OC(C)(C)C)C1` (centres undefined) | -7.954% | -10.78% & -0.7491% |
| `COCCS(=O)(=O)Cc1csc(NC(C)=O)n1` | -12.96% | -13.08% |

From ChEMBL document CHEMBL3988442, “University of Dundee, Small-Polar-MMV Screening Library” (2021).